This is an account of results in article PMC12462528, “Molecular basis of ParA ATPase activation by the CTPase ParB during bacterial chromosome segregation” (Nature Communications, 2025).

The data set concerns the target T1, ParA (His6-ParA) (Myxococcus xanthus) (UniProt Q1CVJ3).
T1 sequence (looked up, limits assumed): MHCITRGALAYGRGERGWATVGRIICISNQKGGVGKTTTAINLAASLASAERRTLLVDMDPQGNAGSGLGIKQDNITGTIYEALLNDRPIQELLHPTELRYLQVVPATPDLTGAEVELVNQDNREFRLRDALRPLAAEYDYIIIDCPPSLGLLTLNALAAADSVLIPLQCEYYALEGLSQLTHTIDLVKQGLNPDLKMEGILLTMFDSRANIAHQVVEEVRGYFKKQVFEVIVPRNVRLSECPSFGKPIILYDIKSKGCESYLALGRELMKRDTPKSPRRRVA
The data set can be described thus: BLI. The conditions noted are these: 1 mM ATP, no ParB1-20 peptide; BLI: 25 mM HEPES/KOH pH 7.6, 100 mM KCl (150 or 500 mM where stated), 10 mM MgSO4, 1 mM DTT, 0.01% Tween 20; temperature not stated; recombinant protein; protein details: His6; label: 5'-biotin-TEG on both strands; probe letters rebuilt from the primers and the genome.

The exact form of at least one protein or probe is not confirmed. Tags and fusion partners may be left off the protein sequences shown.

Turning to “TCCGCTTGGCGTGAGTTCCTGACGCTTGGTGGGAAGGATGCGCGTGCTGATGCGTGCACCTCAGTGAAGTGGATGGCGCGGCTGCTCATGCGCGGGTTGCTCAGCGCCTGTTCCACGTGGAACGCGGGATGGATTGATGGTGGGCACGCGCGCAGCGCCGGAGAGTTCGCTGACGGCTCCGCGTTCAGGCTCGTGATGCGCTCATGGTTCATGGAGTGGTGAGTGCTCCACCGG (double strand) [234-bp parS fragment, closed on biosensor]”, the equilibrium dissociation constant (Kd) (in general, the concentration at which binding is half-saturated) was determined as 7.8 µM.
